From publication PMC10318496
These are yes or no findings as the source states them, for the method shown. Binding seen in cells or lysates may run through a third protein. Some results given as binding are weak or reduced against the parent protein; the word gives no strength.

Chains of the proteins cited; added tags and fusions are not shown.
UniProt O15169: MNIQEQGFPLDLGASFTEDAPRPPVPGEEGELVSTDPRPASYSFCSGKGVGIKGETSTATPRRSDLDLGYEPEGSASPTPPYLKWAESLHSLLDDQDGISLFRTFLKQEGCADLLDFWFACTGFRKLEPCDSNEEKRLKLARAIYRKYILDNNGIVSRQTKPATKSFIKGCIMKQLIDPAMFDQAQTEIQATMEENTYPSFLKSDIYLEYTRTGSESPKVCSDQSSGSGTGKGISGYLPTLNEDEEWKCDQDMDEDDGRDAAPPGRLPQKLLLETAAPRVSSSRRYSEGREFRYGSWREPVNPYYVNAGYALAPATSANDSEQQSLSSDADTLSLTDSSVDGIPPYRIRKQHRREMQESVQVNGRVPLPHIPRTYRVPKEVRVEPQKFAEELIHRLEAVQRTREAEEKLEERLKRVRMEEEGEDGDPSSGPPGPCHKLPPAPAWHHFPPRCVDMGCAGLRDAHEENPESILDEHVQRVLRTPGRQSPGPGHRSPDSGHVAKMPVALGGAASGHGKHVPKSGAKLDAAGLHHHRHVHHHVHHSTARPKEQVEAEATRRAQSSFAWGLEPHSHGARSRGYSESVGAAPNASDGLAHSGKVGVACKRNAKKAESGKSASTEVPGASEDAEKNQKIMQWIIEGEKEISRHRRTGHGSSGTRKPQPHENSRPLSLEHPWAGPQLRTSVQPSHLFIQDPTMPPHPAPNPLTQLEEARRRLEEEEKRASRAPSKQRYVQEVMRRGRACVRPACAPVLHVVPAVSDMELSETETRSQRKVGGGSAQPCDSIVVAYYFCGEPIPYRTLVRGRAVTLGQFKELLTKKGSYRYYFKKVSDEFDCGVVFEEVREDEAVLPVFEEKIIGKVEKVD
UniProt O94972: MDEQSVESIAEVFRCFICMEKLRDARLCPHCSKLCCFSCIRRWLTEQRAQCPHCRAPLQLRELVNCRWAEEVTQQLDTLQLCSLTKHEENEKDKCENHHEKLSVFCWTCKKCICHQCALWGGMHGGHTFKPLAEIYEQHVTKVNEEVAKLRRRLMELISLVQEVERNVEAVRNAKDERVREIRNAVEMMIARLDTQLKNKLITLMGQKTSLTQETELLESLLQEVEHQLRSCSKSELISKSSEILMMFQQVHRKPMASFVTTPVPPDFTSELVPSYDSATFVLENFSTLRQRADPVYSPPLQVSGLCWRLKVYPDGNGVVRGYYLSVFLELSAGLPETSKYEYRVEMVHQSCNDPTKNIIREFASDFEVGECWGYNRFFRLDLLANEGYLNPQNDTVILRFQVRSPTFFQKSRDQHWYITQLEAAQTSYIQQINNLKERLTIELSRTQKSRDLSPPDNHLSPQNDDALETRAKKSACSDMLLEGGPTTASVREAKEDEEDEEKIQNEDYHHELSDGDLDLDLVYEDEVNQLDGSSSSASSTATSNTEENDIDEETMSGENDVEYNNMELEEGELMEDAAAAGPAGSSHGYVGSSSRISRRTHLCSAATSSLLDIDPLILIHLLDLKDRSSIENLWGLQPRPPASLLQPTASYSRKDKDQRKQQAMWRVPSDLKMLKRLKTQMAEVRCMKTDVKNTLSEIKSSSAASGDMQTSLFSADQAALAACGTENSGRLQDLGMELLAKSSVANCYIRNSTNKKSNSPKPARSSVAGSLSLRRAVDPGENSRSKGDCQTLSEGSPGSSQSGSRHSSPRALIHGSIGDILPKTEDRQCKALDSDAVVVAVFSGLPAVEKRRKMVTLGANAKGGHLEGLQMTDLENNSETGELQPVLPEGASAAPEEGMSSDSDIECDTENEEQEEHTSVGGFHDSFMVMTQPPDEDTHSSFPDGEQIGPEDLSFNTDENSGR

Biological target: Axin1 (human (endogenous in GBC-SD)) (UniProt O15169)
Assay: co-IP; GBC-SD cell lysates immunoprecipitated overnight at 4°C with the indicated or anti-IgG antibodies; protein A/G-agarose beads for two hours; western blot

Tripartite motif-containing 37 (TRIM37) (from UniProt O94972 1-964)
binding: binds
